The supplement of paper PMC7830784
Where a name gives a salt, the structure may show the parent alone. Some of the results follow. Most values lie within the scatter of the assay; repeated measurements hardly agree. Non-standard residues stand in square brackets, D forms with d. Residues, ends and D or L forms follow the SMILES beside them. pGlu = O=C1CC[C@@H](C(=O)O)N1; Thz = O=C(O)[C@@H]1CSCN1

Tested on: Brugia pahangi adult female
Assay: motility inhibition on day 3 relative to DMSO vehicle; higher = more active
Details: 10 µM; 3 days

Compound | motility inhibition on day 3
Clc1cccc(Cl)c1NC1=NCCN1 [Clonidine hydrochloride] | 8.12%
CC(=O)O[C@]1(C(C)=O)CC[C@H]2[C@@H]3C=C(Cl)C4=CC(=O)CC[C@]4(C)[C@H]3CC[C@@]21C [chlormadinone acetate] | < 0%
CCCNC(=O)NS(=O)(=O)c1ccc(Cl)cc1 [Chlorpropamide] | 0.435%
CCN(CC)C(C)CN1c2ccccc2Sc2ccccc21 (stereo unspecified) [ethopropazine hydrochloride] | 30.2%
Cc1cc(O)c(C(=O)N[C@@H](C(=O)N[C@@H]2C(=O)N3C(C(=O)O)=C(CSc4nnnn4C)CS[C@H]23)c2ccc(O)cc2)cn1 [cefpiramide] | 1.04%
CC1CC2C3CCC4=CC(=O)C=CC4(C)C3(F)C(O)CC2(C)C1C(=O)CO (stereo unspecified) [desoxymetasone] | < 0%
CC=CC(=O)N(CC)c1ccccc1C [crotamiton] | 9.71%
CC1=C(C)C(=O)C(C(CCCCCC(=O)O)c2ccccc2)=C(C)C1=O (stereo unspecified) [seratrodast] | 8.95%
Cc1nc2c([nH]1)-c1ccccc1N(C(=O)c1ccc(NC(=O)c3ccccc3-c3ccccc3)cc1)CC2 [Conivaptan Hydrochloride] | < 0%
CNCCc1ccccn1 [betahistine hydrochloride] | 15.3%
NCCCCCC(=O)O [aminocaproic acid] | 6.53%
CN(C)C(=N)NC(=N)N [metformin hydrochloride] | 7.37%
Nc1nc2c(ncn2COC(CO)CO)c(=O)[nH]1 [ganciclovir] | 12.7%
CCCCCCCCCCCCCCCC(=O)OC[C@H](O)[C@H]1OC(=O)C(O)=C1O [ascorbyl palmitate] | 54.6%
Cn1c(=O)c2c(ncn2CC2OCCO2)n(C)c1=O [doxofylline] | < 0%
CN(CCCCCCCCCCN(C)C(=O)Oc1cccc([N+](C)(C)C)c1)C(=O)Oc1cccc([N+](C)(C)C)c1 [Demecarium Bromide] | < 0%
CC(=O)N(CC(O)CO)c1c(I)c(C(=O)NCC(O)CO)c(I)c(C(=O)NCC(O)CO)c1I (stereo unspecified) [iohexol] | 7.94%
COC(=O)Nc1nc2cc(Sc3ccccc3)ccc2[nH]1 [fenbendazole] | 38.9%
CC(=O)N(CC(O)CO)c1c(I)c(C(=O)NCCO)c(I)c(C(=O)NCC(O)CO)c1I (stereo unspecified) [ioxilan] | < 0%
CN1CCN(CC(=O)N2c3ccccc3C(=O)Nc3cccnc32)CC1 [Pirenzepine dihydrochloride] | 23.5%
C[C@H]1C[C@H]2[C@@H]3CCC4=CC(=O)C=C[C@]4(C)[C@@]3(F)[C@@H](O)C[C@]2(C)[C@@]1(O)C(=O)COP(=O)(O)O [betamethasone sodium phosphate] | 18.2%
CCCCC(CC)COC(=O)CC(C(=O)OCC(CC)CCCC)S(=O)(=O)O (stereo unspecified) [docusate sodium] | 87.8%
CC(=O)OCC1=C(C(=O)O)N2C(=O)[C@@H](NC(=O)CC#N)[C@H]2SC1 [Cefacetrile] | 5.53%
Nc1ncnc2c1ncn2[C@@H]1O[C@H](CO)[C@@H](O)[C@@H]1O [vidarabine] | 0.131%
CCOc1nc2cccc(C(=O)O)c2n1Cc1ccc(-c2ccccc2-c2nnn[nH]2)cc1 [candesartan] | 18.6%
CC[C@H](C)[C@H](N)C(=O)O [isoleucine (l)] | 18.4%

Compound | motility inhibition on day 3
CN(C)CCC(c1ccc(Br)cc1)c1ccccn1 (stereo unspecified) [brompheniramine maleate] | 16.2%
O=C1CC[C@@H](C(=O)N2CSC[C@H]2C(=O)O)N1 [pidotimod] ([pGlu]-[Thz]-OH) | < 0%
Oc1c(Cl)cc(Cl)c2cccnc12 [chloroxine] | 84.5%
c1ccc(-c2ccc(C(c3ccccc3)n3ccnc3)cc2)cc1 (stereo unspecified) [bifonazole] | 24%
COC(=O)C1=C(C)NC(C)=C(C(=O)OC(C)(C)CN(C)CCC(c2ccccc2)c2ccccc2)C1c1cccc([N+](=O)[O-])c1 (stereo unspecified) [Lercanidipine] | 99.9%
CCC1(c2ccccc2)C(=O)NCNC1=O [Primidone] | < 0%
CC(=O)OC[C@H]1O[C@@H]([S-])[C@H](OC(C)=O)[C@@H](OC(C)=O)[C@@H]1OC(C)=O.CCP(CC)CC.[Au+] [Auranofin] | 99.8%
COC(=O)[C@H](Cc1ccccc1)NC(=O)[C@@H](N)CC(=O)O [aspartame] (H-Asp-Phe-OMe) | 15.6%
CO/N=C(\C(=O)N[C@@H]1C(=O)N2C(C(=O)O)=C(COC(C)=O)CS[C@H]12)c1csc(N)n1 [cefotaxime sodium] | 8.33%
C[C@]12CC[C@@H]3c4ccc(O)cc4C[C@@H](CCCCCCCCC[S+]([O-])CCCC(F)(F)C(F)(F)F)[C@H]3[C@@H]1CC[C@@H]2O (stereo partly specified) [fulvestrant] | 5.94%
C[C@]12CC[C@@H]3c4ccc(O)cc4C[C@@H](CCCCCCCCC[S+]([O-])CCCC(F)(F)C(F)(F)F)[C@H]3[C@@H]1CC[C@@H]2O (stereo partly specified) [Fulvestrant] | 35.9%
COc1cc(CNC(=O)CCCC/C=C/C(C)C)ccc1O [e-capsaicin] | 12.8%
O=C(NCCCN1CCOCC1)c1ccc(Cl)cc1 [eprobemide] | 4.51%
O=C(CCCl)NCCc1ccccc1 [fenaclon] | 46.8%
Clc1ccc2nsnc2c1NC1=NCCN1 [Tizanidine hydrochloride] | 10.7%
CC(C)Oc1ccc2c(=O)c(-c3ccccc3)coc2c1 [ipriflavone] | 23.5%
CC(=O)Nc1c(I)cc(I)c(C(=O)O)c1I [acetriazoic acid] | < 0%
Cc1cc2cc3c(C)cc(=O)oc3c(C)c2o1 [trioxsalen] | 5.24%
CC(=O)Nc1nnc(S(N)(=O)=O)s1 [Acetazolamide] | < 0%
C[N+](C)(C)CC(O)CC(=O)[O-] (stereo unspecified) [carnitine hydrochloride] | 17.9%
CCCCOc1cc(C(=O)OCCN(CC)CC)ccc1N [benoxinate hydrochloride] | < 0%
CCCCCCOc1ccccc1C(N)=O [exalamide] | 35.7%
CCN(CC)CCNC(=O)c1ccc(N)cc1 [Procainamide hydrochloride] | < 0%
NC[C@H](O)c1ccc(O)c(O)c1 [norepinephrine] | 14.7%
O=C(O)C1=C(CSc2nnnn2CS(=O)(=O)O)CS[C@@H]2[C@H](NC(=O)[C@H](O)c3ccccc3)C(=O)N12 [Cefonicid sodium] | 21.5%
O=C(O)C1=C(CSc2nnnn2CS(=O)(=O)O)CS[C@@H]2[C@H](NC(=O)[C@H](O)c3ccccc3)C(=O)N12 [cefonicid sodium] | 8.56%

Compound | motility inhibition on day 3
Cc1ccc(-c2cc(C(F)(F)F)nn2-c2ccc(S(N)(=O)=O)cc2)cc1 [celecoxib] | 6.27%
CC(C)[N+]1(C)[C@@H]2CC[C@H]1C[C@@H](OC(=O)C(CO)c1ccccc1)C2 (stereo partly specified) [ipratropium bromide] | 3.29%
Nc1ccc(S(=O)(=O)Nc2nccs2)cc1 [sulfathiazole] | 2.68%
CN[C@H]1CC[C@@H](c2ccc(Cl)c(Cl)c2)c2ccccc21 [sertraline hydrochloride] | 0.673%
CC[C@H]1OC(=O)[C@H](C)[C@@H](O[C@H]2C[C@@](C)(OC)[C@@H](O)[C@H](C)O2)[C@H](C)[C@@H](O[C@@H]2O[C@H](C)C[C@H](N(C)C)[C@H]2O)[C@](C)(O)C[C@@H](C)CN(C)[C@H](C)[C@@H](O)[C@]1(C)O [azithromycin] | 1.48%
NC[C@H]1O[C@H](O[C@H]2[C@H](O)[C@@H](O[C@H]3O[C@H](CO)[C@@H](O)[C@H](N)[C@H]3O)[C@H](N)C[C@@H]2N)[C@H](N)C[C@@H]1O [tobramycin] | 3.84%
C=CCOc1ccccc1OCC(O)CNC(C)C (stereo unspecified) [Oxprenolol hydrochloride] | 2.97%
O=C(O)c1ccc[n+]([O-])c1 [oxiniacic acid] | 4.85%
CCOC(=O)/C=C(C)/C=C/C=C(C)/C=C/c1c(C)cc(OC)c(C)c1C [Etretinate] | 12.1%
CCOC(=O)Nc1nc2ccccc2[nH]1 [lobendazole] | 28.2%
CC(=O)Nc1ccc(OC(=O)c2ccccc2O)cc1 [acetaminosalol] | < 0%
COc1cc2nc(N3CCN(C(=O)C4COc5ccccc5O4)CC3)nc(N)c2cc1OC (stereo unspecified) [doxazosin mesylate] | 32.9%
O=C(CCBr)N1CCN(C(=O)CCBr)CC1 [pipobroman] | 1.2%
N[C@H]1CONC1=O [levcycloserine] | 19.3%
CCCCC1C(=O)N(c2ccccc2)N(c2ccc(O)cc2)C1=O (stereo unspecified) [oxyphenbutazone] | 39%
CC#CCn1c(N2CCC[C@@H](N)C2)nc2c1c(=O)n(Cc1nc(C)c3ccccc3n1)c(=O)n2C [linagliptin] | 10.2%
CCN(CC)CCOCCOC(=O)C1(c2ccccc2)CCCC1 [Carbetapentane citrate] | 18.3%
Cc1cc(C(C)(C)C)cc(C)c1CC1=NCCN1 [xylometazoline hydrochloride] | 7.66%
CCN(CC)C(=O)C1(c2ccccc2)CC1CN (stereo unspecified) [milnacipran hydrochloride] | 4.1%
CCN(CCCCOC(=O)c1ccc(OC)c(OC)c1)C(C)Cc1ccc(OC)cc1 (stereo unspecified) [mebeverine hydrochloride] | 8.41%
CC(C)(CO)[C@@H](O)C(=O)NCCC(=O)O [pantothenic acid(d) na salt] | < 0%
O=P(O)(O)C(O)(Cn1ccnc1)P(=O)(O)O [Zoledronic acid] | < 0%
CC#C[C@]1(O)CC[C@H]2[C@@H]3CCC4=CC(=O)CCC4=C3[C@@H](c3ccc(N(C)C)cc3)C[C@@]21C [mifepristone] | 2.32%
COc1ccc(Cl)cc1C(=O)NCCc1ccc(S(=O)(=O)NC(=O)NC2CCCCC2)cc1 [Glibenclamide] | 14.2%

A second format for part of the listing above:

| Compound | motility inhibition on day 3 |
| --- | --- |
| CC[C@H]1OC(=O)[C@H](C)[C@@H](O[C@H]2C[C@@](C)(OC)[C@@H](O)[C@H](C)O2)[C@H](C)[C@@H](O[C@@H]2O[C@H](C)C[C@H](N(C)C)[C@H]2O)[C@](C)(O)C[C@@H](C)CN(C)[C@H](C)[C@@H](O)[C@]1(C)O [azithromycin] | 1.48% |
| O=C(O)c1ccc[n+]([O-])c1 [oxiniacic acid] | 4.85% |
| CCOC(=O)Nc1nc2ccccc2[nH]1 [lobendazole] | 28.2% |
